Experimental data as given in PubChem BioAssay AID977622 (Broad Institute, 2014).
Among all 1,900 compounds or so, fewer than 10 were called active. The shares of active, inactive and inconclusive entries below differ from those in the screen.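 The calls were made as follows: active = Green signal of the normal strain falls at least twice as much as red signal of the resistant mutant, with overall culture growth loss under a set limit; inconclusive = no clear call, values can overlap the other calls; inactive = the rest.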

Experiment: wild-type E. coli growth inhibition versus h38 humanized strain – h38 mutant RFP, wild-type GFP, cherry-pick, dose response (AID 977622)
Conditions: E. coli WT ribosome GFP fluorescence, mixed culture, 24 h; at 50 µM (top of the series)

| Structure (SMILES) | activity change, negative = inhibition |
| --- | --- |
| COc1cc(SC)ccc1C(=O)N1CCN(c2ccccc2F)CC1 | inconclusive: -18.8 |
| COc1ccc(C#Cc2ccc([C@@H]3[C@@H](CO)N4CCCCN(C(=O)Nc5ccccc5F)C[C@H]34)cc2)cc1 | inconclusive: 3.16 |
| COc1cccc(OC)c1CNC(=O)CCSCc1ccccc1F | inconclusive: -0.426 |
| OCCC1CN(Cc2cnc(-c3ccc(Cl)cc3)nc2)CCN1C1CCCCC1 (centres undefined) | inactive: 5.72 |
| CC(=O)Nc1cccc(OCCCOc2cccc([N+](=O)[O-])c2)c1 | inactive: -5.9 |
| Nc1[nH]c(C(=O)c2ccccc2)c(-c2ccc(Br)cc2)c1C(=O)c1cccs1 | inconclusive: -18.4 |
| O=C(Nc1cccc(F)c1)N1C[C@@H]2[C@H](c3ccccc31)[C@H](CO)N2C(=O)Cc1ccccn1 | inactive: -0.901 |
| C[C@H]1CCCCO[C@@H](CN(C)C)[C@@H](C)CN([C@@H](C)CO)C(=O)c2cc(NC(=O)Nc3cccc4ccccc34)ccc2O1 | inconclusive: -6.21 |
| CSc1ccccc1C(=O)NCCc1ccc(S(=O)(=O)N2CCCCC2)cc1 | inactive: -3.23 |
| Cc1ccnc(NS(=O)(=O)c2ccc(NC(=O)c3ccc4c(c3)OCCO4)cc2)n1 | inconclusive: 3.96 |
| O=C(Nc1ccc(F)cc1)N1CCCCN2[C@@H](CO)[C@H](c3ccc(-c4ccncc4)cc3)[C@@H]2C1 | inactive: 16.5 |
| C[C@H](CO)N1C[C@H](C)[C@@H](CN(C)C(=O)CCCN(C)C)OCCCC[C@H](C)Oc2ccc(NC(=O)Nc3cccc4ccccc34)cc2C1=O | inactive: -5.52 |
| Cc1noc(C)c1NC(=O)Nc1ccc2c(c1)C(=O)N([C@H](C)CO)C[C@H](C)[C@H](CN(C)C(=O)Nc1ccc3c(c1)OCO3)OCCCC[C@H](C)O2 | inactive: 4.53 |
| COc1ccc(NC(=O)CN(C)C(=O)c2cc(C3CC3)nn2-c2ccccc2)cc1 | inconclusive: -4.07 |
| Cc1cc(NC(=O)CCN2C(=O)C3C4C=CC(C4)C3C2=O)ccc1Br (centres undefined) | inconclusive: -8.48 |
| COc1ccc(NC(=O)Nc2cccc3c2O[C@H](CN(C)S(=O)(=O)c2ccc(Cl)cc2)[C@@H](C)CN([C@H](C)CO)C3=O)cc1 | inconclusive: -27.6 |
| Cc1ccc(Cc2c(-c3ccc(C#N)cc3)nc3ccc(Br)cn23)cc1 | inactive: -0.343 |
| O=C(O)c1ccccc1Nc1cc(Cl)c2nonc2c1[N+](=O)[O-] | inactive: -13.9 |
| COC(=O)c1cc2c(c3c4cc(OC)ccc4n(C(=O)c4ccccc4)c13)C(=O)N(Cc1ccco1)C2 | inconclusive: -0.811 |
| Cc1cc(NC(=O)CS(=O)(=O)c2cn(Cc3cccc(Br)c3)c3ccccc23)no1 | inconclusive: -36.4 |
| O=C(COC(=O)C1CC2C=CC1C2)Nc1ccc([N+](=O)[O-])cc1 (centres undefined) | inactive: -8.14 |
| COc1cccc(C(=O)NC(C)c2ccc(Br)cc2)c1 (centres undefined) | inconclusive: -6.69 |
| Brc1ccc(-c2nc3c4ccccc4ccn3c2Cc2ccccc2)cc1 | inconclusive: 0.483 |

Quoted from the listing:
Under activity change, negative = inhibition, `CSc1ccccc1C(=O)NCCc1ccc(S(=O)(=O)N2CCCCC2)cc1` has the entry inactive: -3.23
Under activity change, negative = inhibition, `COc1ccc(NC(=O)CN(C)C(=O)c2cc(C3CC3)nn2-c2ccccc2)cc1` has the entry inconclusive: -4.07

More results

| Structure (SMILES) | activity change, negative = inhibition |
| --- | --- |
| CC[n+]1c(C)cc2c(sc3ccccc32)c1C | inactive: 1.66 |
| C[C@H](CO)N1C[C@H](C)[C@H](CN(C)C(=O)CCCN(C)C)OCCCC[C@H](C)Oc2ccc(NC(=O)Nc3cccc4ccccc34)cc2C1=O | inconclusive: 7.46 |
| COc1ccc(-c2cc(C(=O)N(C)CCc3ccc(OC)c(OC)c3)c3ccccc3n2)cc1 | inconclusive: -9.25 |
| O=C1OC[C@@H]2CCCN2C(=O)[C@@H](CC(=O)N(CCO)Cc2ccccc2)C/C=C\C[C@H]1Cc1ccc(F)cc1 | inactive: -2.07 |
| COC(=O)c1cc2c(c3c4cc(F)ccc4n(S(=O)(=O)c4ccccc4)c13)C(=O)N(Cc1ccco1)C2 | inconclusive: -11.7 |
| CC(C)CC#Cc1ccc([C@@H]2[C@@H](CO)N3C(=O)CN(C(=O)Cc4ccccc4)C[C@@H]23)cc1 | inactive: 8.4 |
| NS(=O)(=O)c1ccc(Nc2c([N+](=O)[O-])cncc2[N+](=O)[O-])cc1 | inconclusive: -12.2 |
| CC(C)NC(=O)N(C)C[C@H]1OCCCC[C@@H](C)Oc2ccc(NC(=O)c3ccccc3)cc2C(=O)N([C@@H](C)CO)C[C@H]1C | inconclusive: 3.66 |
| CCOCC(=O)Nc1c(C(=O)Nc2ccc3c(c2)OCCO3)oc2ccccc12 | inactive: -8.31 |
| CN(c1ccccc1)S(=O)(=O)c1cccc(NC(=O)CCNC(=O)c2ccc([N+](=O)[O-])cc2)c1 | inconclusive: 7.71 |
| CCOc1ncccc1C(=O)OCC(=O)NCCCc1ccccc1 | inactive: -10.9 |
| O=C(CN1CC[n+]2c(-c3cccs3)csc21)c1ccc(-c2ccccc2)cc1 | inconclusive: -75.9 |
| C=CCn1c(C)cc(C(=O)COC(=O)CNC(=O)c2ccccc2)c1C | inconclusive: -8.48 |
| O=C1CN(C(=O)c2ccc(Cl)c(S(=O)(=O)N3CCc4ccccc43)c2)c2ccccc2N1 | inconclusive: -18.2 |
| Cc1cccc(C)c1NC(=O)CNC(=O)C(C)N1CCN(c2cccc(Cl)c2)CC1 (centres undefined) | inconclusive: -23.8 |
| C=C1c2cc3c(cc2NC(=S)N1Cc1ccccc1)OCO3 | inactive: 0.254 |
| O=C(c1ccco1)c1nnn(Cc2ccccc2)c1-c1ccccc1 | inconclusive: -11.4 |
| COc1cccc(CN(C)Cc2nc(Cc3ccccc3Cl)no2)c1 | inactive: -1.9 |
| C[C@@H]1CCCCO[C@@H](CN(C)C)[C@H](C)CN([C@@H](C)CO)C(=O)c2cc(NC(=O)Nc3cccc4ccccc34)ccc2O1 | inconclusive: 10.3 |
| Cc1ccc(NCCCn2cnc3c(OCc4ccccc4)ncnc32)cc1C | inconclusive: 2.5 |
| Cc1ccc(C(=O)Nc2ccc3ncccc3c2)cc1 | inconclusive: -8.99 |
| O=C(NCCc1csc(-c2ccccc2)n1)c1ccccc1F | inconclusive: -9.18 |
| Cc1c(C(=O)O)oc2ccc(S(=O)(=O)NC3CCCCCCC3)cc12 | inconclusive: -10.8 |

| Structure (SMILES) | activity change, negative = inhibition |
| --- | --- |
| c1ccc(-c2nc(-c3cccnc3)cs2)cc1 | inconclusive: -3.91 |
| CN(Cc1ccc(Cl)s1)C(=O)CNC(=O)CNC(=O)c1ccc(Cl)cc1Cl | inconclusive: -19.9 |
| CCOC(=O)c1nc(C)sc1-c1ccnn1S(=O)(=O)c1cccc(Cl)c1 | inconclusive: -28 |
| O=C(C[C@H]1CC[C@H](NC(=O)Nc2ccccc2F)[C@H](CO)O1)NCc1ccc(-c2ccccc2)cc1 | inconclusive: -11.3 |
| COc1ccc(OC)c(Nc2nc(N)c([N+](=O)[O-])c(N3CCOCC3)n2)c1 | inconclusive: -21.1 |
| Cc1ccc2nc(-c3ccc(Cl)cc3)c(Cc3ccccc3C(F)(F)F)n2c1 | inactive: 6.82 |
| CC1(C(=O)NS(=O)(=O)c2cccs2)CCN1C(=O)C1(c2ccc(Cl)cc2)CCC1 (centres undefined) | inconclusive: -12.6 |
| CS(=O)(=O)NCCSc1cc(C(F)(F)F)nc2ccccc12 | inconclusive: -5.48 |
| CN1c2ccccc2-c2nc3ccccc3n2C1c1ccncc1 (centres undefined) | inactive: -2.85 |
| CNC[C@H]1OCCCC[C@@H](C)Oc2ccc(NC(=O)Nc3cccc4ccccc34)cc2C(=O)N([C@@H](C)CO)C[C@H]1C | inconclusive: -5.88 |
| COc1ccc(-n2cc(-c3ccccc3)c3c(N4CCOCC4)ncnc32)cc1 | inconclusive: -22.1 |
| CCN(c1ccccc1)S(=O)(=O)c1ccc(Cl)c(C(=O)NCc2ccco2)c1 | inconclusive: -26.8 |
| C=CCn1c(-c2cc3cccc(OC)c3o2)n[nH]c1=S | inconclusive: -21.7 |
| Cc1cc(NC(=O)CN2CCN(c3cccc(Cl)c3)CC2)no1 | inconclusive: 17.9 |
| CCNC(=O)C1(C)CCCN(Cc2cccc3ccccc23)C1 (centres undefined) | inactive: 14.7 |
| Cc1cccc(CN2C(=O)c3ccccc3Sc3ccc(C(=O)O)cc32)c1 | inactive: -5.03 |
| Nc1ccc(C(=O)OCCCc2nc3cc4ccccc4cc3[nH]2)cc1 | inactive: -7.54 |
| Cc1onc(-c2ccccc2Cl)c1C(=O)Nc1ccc(Cl)cn1 | inactive: 0.801 |
| O=C(CCS(=O)(=O)c1ccccc1)Nc1ncc([N+](=O)[O-])s1 | inconclusive: -27.8 |
| CN(C)C(=O)c1cccc(-c2ccc(C3[C@H]4CNC[C@@H]3N4S(=O)(=O)c3ccccc3F)cc2)c1 (some centres undefined) | inconclusive: 7.4 |
| COc1ccc(NC(=O)c2cccs2)cc1C(=O)N1CCN(c2ccccc2)CC1 | inconclusive: -8.55 |
| COc1ccc(C#Cc2ccc([C@@H]3[C@@H](CO)N4CCCCN(C(=O)Nc5ccc(F)cc5)C[C@H]34)cc2)cc1 | inactive: 1.57 |
| COc1cc2c(cc1OC)CN(CC(=O)Nc1ccccc1SC)CC2 | inconclusive: 9.43 |

Filtered by structure, those above containing a CF3 group (2)

| Structure (SMILES) | activity change, negative = inhibition |
| --- | --- |
| Cc1ccc2nc(-c3ccc(Cl)cc3)c(Cc3ccccc3C(F)(F)F)n2c1 | inactive: 6.82 |
| CS(=O)(=O)NCCSc1cc(C(F)(F)F)nc2ccccc12 | inconclusive: -5.48 |

Later entries.

| Structure (SMILES) | activity change, negative = inhibition |
| --- | --- |
| O=C(c1ccccc1)N1CCN(c2ccc([N+](=O)[O-])c(NCC3CCCO3)c2)CC1 (centres undefined) | inconclusive: -4.72 |
| COC(=O)c1ccc(CCc2cc(O)c(Br)cc2O)cc1 | inactive: -8.91 |
| CC1(C(=O)NCCc2c[nH]c3ccccc23)CCN1CC1CCCCC1 (centres undefined) | inconclusive: -44.9 |
| CCN(C(=O)COC(=O)c1ccc([N+](=O)[O-])o1)c1cccc2ccccc12 | inconclusive: -17.8 |
| O=C1CCCCC1Nc1ccc(Br)cc1 (centres undefined) | inconclusive: -5.4 |
| Cn1cc([N+](=O)[O-])c(C(=O)Nc2ccc(-c3nc4ccccc4[nH]3)cc2)n1 | inconclusive: -39.8 |
| COc1ccc(C)c2sc(N(CCN(C)C)C(=O)c3ccc(S(=O)(=O)N(C)c4ccccc4)cc3)nc12 | inactive: 0.113 |
| Nc1nc(=S)ss1 | inconclusive: -26.7 |
| O=C1CCCc2ccccc2N1Cc1ccccc1 | inactive: -4.53 |
| Brc1ccccc1Cn1c(-c2cncs2)nc2ccccc21 | inconclusive: -6.82 |
| Cc1ccccc1-n1c([C@@H]2C[C@H]2c2ccccc2)n[nH]c1=S | inactive: -4.26 |
| O=C(Nc1ccc2c(c1)OCCO2)C1C(c2ccccc2)=Nc2ccccc2N1C(=O)c1cccnc1 (centres undefined) | inconclusive: -12.3 |
| COc1cccc(CC(=O)Nc2nc(-c3cc(OC)ccc3OC)cs2)c1 | inconclusive: 1.75 |
| COc1cccc(S(=O)(=O)N2CCCCN3[C@H](C2)[C@@H](c2ccc(C#CC(C)C)cc2)[C@@H]3CO)c1 | inconclusive: -5.93 |
| Cc1cccc(-n2cnc3cc([N+](=O)[O-])ccc32)c1 | inconclusive: 1.51 |
| COc1ccc(NC(=O)Nc2cccc3c2O[C@@H](CN(C)S(=O)(=O)c2ccc(Cl)cc2)[C@H](C)CN([C@@H](C)CO)C3=O)cc1 | inconclusive: -16.3 |
| C[C@@H]1CCCCO[C@H](CN(C)C)[C@@H](C)CN([C@H](C)CO)C(=O)c2cc(NC(=O)Nc3cccc4ccccc34)ccc2O1 | inactive: 20.6 |
| CCOC(=O)c1cnc2ccccc2c1NCc1ccco1 | inactive: 0.326 |
| N#Cc1ccc(OCC(=O)N2CCN(S(=O)(=O)c3ccc(Cl)s3)CC2)cc1 | inconclusive: -12.5 |
| Cc1noc(C)c1NC(=O)Nc1ccc2c(c1)C(=O)N([C@@H](C)CO)C[C@@H](C)[C@@H](CN(C)C(=O)Nc1ccc3c(c1)OCO3)OCCCC[C@@H](C)O2 | inactive: 5.04 |
